The source of these data is patent US9029076B2, “Tissue preservation and fixation method” (George Mason Research Foundation, Inc., priority 2006, dated 2015).

The data set deals with frozen tissue section. In words: Cutting of frozen tissue sections after fixation in candidate solutions. The note with it: for ability to allow the cutting of frozen sections or microdissection, and to achieve phosphoprotein stability: FIG. 5.

For Polyethylene glycol (PEG 400), the “Successful cutting frozen tissue section” value (tissue fixed in the chemical with stated diluent and additives) is recorded as “No”.
Regarding `CO` [10% methanol in water, methanol], the “ability to allow the cutting of frozen sections or microdissection, and to achieve phosphoprotein stability” value was “freezing is not impeded, frozen sections can be cut, and histology is acceptable for LCM”.
Still for that read-out and setting: as for `CCO` [ethanol], the entry is “do not function well”; as for `CC(C)=O` [Acetone], “do not function well”.
In the case of `CO` [85% methanol, methanol], the suitability for freezing result (third study, high percentage of fixative acting as anti-freeze) is listed as “unsuitable for freezing”.
